Some of the results follow. Many values rest on one well or one pass, so single values are uncertain.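 The apoptosis fraction was the count of cleaved-PARP antibody-stained nuclei relative to all DNA-stained nuclei, imaged in 1,536-well plates. Screening doses were set so most cells survived, and baseline and induced cleaved-PARP levels vary greatly across cell lines.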
Key:
Assay in all cases: cleaved PARP positive nuclei fraction relative to DMSO control; melanoma cells; higher = more apoptosis
Settings in all cases: library dose: low library concentration; 72 h
501Mel = tested on: 501Mel
A101D = tested on: A101D
A2058 = tested on: A2058
A375 = tested on: A375
C32 = tested on: C32
CBRC008 = tested on: CBRC008 (line from a melanoma biopsy)
CBRC014 = tested on: CBRC014 (line from a melanoma biopsy)
CBRC016 = tested on: CBRC016 (line from a melanoma biopsy)
CBRC017 = tested on: CBRC017 (line from a melanoma biopsy)

NC(=O)c1ccc(N(C(N)=O)c2c(F)cccc2F)nc1-c1ccc(F)cc1F + CN1CCN(c2ccc3nc(-c4c(N)c5c(F)cccc5[nH]c4=O)[nH]c3c2)CC1 [Dovitinib] (first compound 0.4 µM, partner dose 0.1 µM)
cleaved PARP positive nuclei fraction (501Mel): 309% | cleaved PARP positive nuclei fraction (A101D): 123% | cleaved PARP positive nuclei fraction (A2058): 127% | cleaved PARP positive nuclei fraction (A375): 150% | cleaved PARP positive nuclei fraction (C32): 124% | cleaved PARP positive nuclei fraction (CBRC008): 38.9% | cleaved PARP positive nuclei fraction (CBRC014): 90.1% | cleaved PARP positive nuclei fraction (CBRC016): 38.3% | cleaved PARP positive nuclei fraction (CBRC017): 70.8%

C[C@@H](N)c1ccc(C(=O)Nc2ccnc3[nH]ccc23)cc1 + CS(=O)(=O)c1ccc(C(=O)Nc2ccc(Cl)c(-c3ccccn3)c2)c(Cl)c1 [vismodegib] (first compound 0.4 µM, partner dose 1 µM)
cleaved PARP positive nuclei fraction (501Mel): 84.6% | cleaved PARP positive nuclei fraction (A101D): 120% | cleaved PARP positive nuclei fraction (A2058): 300% | cleaved PARP positive nuclei fraction (A375): 198% | cleaved PARP positive nuclei fraction (C32): 91.9% | cleaved PARP positive nuclei fraction (CBRC008): 107% | cleaved PARP positive nuclei fraction (CBRC014): 133% | cleaved PARP positive nuclei fraction (CBRC016): 1160% | cleaved PARP positive nuclei fraction (CBRC017): 120%

CS(=O)(=O)c1ccc(C(=O)Nc2ccc(Cl)c(-c3ccccn3)c2)c(Cl)c1 [vismodegib] + COc1ccc(Cl)c(Nc2nc3ccccc3nc2NS(=O)(=O)c2cccc(NC(=O)C(C)(C)N)c2)c1 [XL147] (first compound 1 µM, partner dose 0.8 µM)
cleaved PARP positive nuclei fraction (501Mel): 96% | cleaved PARP positive nuclei fraction (A101D): 77.9% | cleaved PARP positive nuclei fraction (A2058): 310% | cleaved PARP positive nuclei fraction (A375): 141% | cleaved PARP positive nuclei fraction (C32): 69.9% | cleaved PARP positive nuclei fraction (CBRC008): 337% | cleaved PARP positive nuclei fraction (CBRC014): 97.2% | cleaved PARP positive nuclei fraction (CBRC017): 118%

Cn1sc(=O)n(Cc2ccccc2)c1=O + COCC[n+]1c2c(n(Cc3cnccn3)c1C)C(=O)c1ccccc1C2=O [YM155] (first compound 0.4 µM, partner dose 0.0004 µM)
cleaved PARP positive nuclei fraction (501Mel): 68.2% | cleaved PARP positive nuclei fraction (A101D): 46.2% | cleaved PARP positive nuclei fraction (A2058): 101% | cleaved PARP positive nuclei fraction (A375): 477% | cleaved PARP positive nuclei fraction (C32): 148% | cleaved PARP positive nuclei fraction (CBRC008): 113% | cleaved PARP positive nuclei fraction (CBRC014): 105% | cleaved PARP positive nuclei fraction (CBRC016): 289% | cleaved PARP positive nuclei fraction (CBRC017): 118%

C[C@@H](N)c1ccc(C(=O)Nc2ccnc3[nH]ccc23)cc1 + Nc1cccc2c1CN(C1CCC(=O)NC1=O)C2=O [lenalidomide] (first compound 0.4 µM, partner dose 1 µM)
cleaved PARP positive nuclei fraction (501Mel): 69.8% | cleaved PARP positive nuclei fraction (A101D): 82.6% | cleaved PARP positive nuclei fraction (A2058): 130% | cleaved PARP positive nuclei fraction (A375): 89% | cleaved PARP positive nuclei fraction (C32): 93.3% | cleaved PARP positive nuclei fraction (CBRC008): 131% | cleaved PARP positive nuclei fraction (CBRC014): 86.3% | cleaved PARP positive nuclei fraction (CBRC016): 266% | cleaved PARP positive nuclei fraction (CBRC017): 95.8%

Cn1cnc2c(F)c(Nc3ccc(Br)cc3Cl)c(C(=O)NOCCO)cc21 [selumetinib] + Cn1c(=O)n(-c2ccc(C(C)(C)C#N)cc2)c2c3cc(-c4cnc5ccccc5c4)ccc3ncc21 [NVP-BEZ235] (first compound 0.015 µM, partner dose 0.004 µM)
cleaved PARP positive nuclei fraction (501Mel): 374% | cleaved PARP positive nuclei fraction (A101D): 108% | cleaved PARP positive nuclei fraction (A2058): 78.9% | cleaved PARP positive nuclei fraction (A375): 304% | cleaved PARP positive nuclei fraction (C32): 93.7% | cleaved PARP positive nuclei fraction (CBRC008): 52.3% | cleaved PARP positive nuclei fraction (CBRC014): 79.7% | cleaved PARP positive nuclei fraction (CBRC016): 108% | cleaved PARP positive nuclei fraction (CBRC017): 163%

C[C@]1(O)C[C@@H](c2nc(-c3ccc4ccc(-c5ccccc5)nc4c3)c3c(N)nccn32)C1 + Nc1ncn([C@H]2C[C@H](O)[C@@H](CO)O2)c(=O)n1 [decitabine] (first compound 0.4 µM, partner dose 0.1 µM)
cleaved PARP positive nuclei fraction (501Mel): 48.7% | cleaved PARP positive nuclei fraction (A101D): 98.8% | cleaved PARP positive nuclei fraction (A2058): 60.6% | cleaved PARP positive nuclei fraction (A375): 358% | cleaved PARP positive nuclei fraction (C32): 141% | cleaved PARP positive nuclei fraction (CBRC008): 174% | cleaved PARP positive nuclei fraction (CBRC014): 124% | cleaved PARP positive nuclei fraction (CBRC016): 33.5% | cleaved PARP positive nuclei fraction (CBRC017): 52.9%

COc1ccc(C2=N[C@@H](c3ccc(Cl)cc3)[C@@H](c3ccc(Cl)cc3)N2C(=O)N2CCNC(=O)C2)c(OC(C)C)c1 [Nutlin-3] + Clc1ccc(Nc2nnc(Cc3ccncc3)c3ccccc23)cc1 [vatalanib] (first compound 0.1 µM, partner dose 2 µM)
cleaved PARP positive nuclei fraction (501Mel): 125% | cleaved PARP positive nuclei fraction (A101D): 164% | cleaved PARP positive nuclei fraction (A2058): 146% | cleaved PARP positive nuclei fraction (A375): 144% | cleaved PARP positive nuclei fraction (C32): 199% | cleaved PARP positive nuclei fraction (CBRC008): 199% | cleaved PARP positive nuclei fraction (CBRC014): 228% | cleaved PARP positive nuclei fraction (CBRC016): 117% | cleaved PARP positive nuclei fraction (CBRC017): 110%

CN(c1ncccc1CNc1nc(Nc2ccc3c(c2)CC(=O)N3)ncc1C(F)(F)F)S(C)(=O)=O + Nc1ncn([C@H]2C[C@H](O)[C@@H](CO)O2)c(=O)n1 [decitabine] (first compound 0.08 µM, partner dose 0.1 µM)
cleaved PARP positive nuclei fraction (501Mel): 121% | cleaved PARP positive nuclei fraction (A101D): 50.9% | cleaved PARP positive nuclei fraction (A2058): 156% | cleaved PARP positive nuclei fraction (A375): 76.4% | cleaved PARP positive nuclei fraction (C32): 84.9% | cleaved PARP positive nuclei fraction (CBRC008): 111% | cleaved PARP positive nuclei fraction (CBRC014): 120% | cleaved PARP positive nuclei fraction (CBRC016): 150% | cleaved PARP positive nuclei fraction (CBRC017): 115%

CCCCCCCCc1ccc(CCC(N)(CO)CO)cc1 [fingolimod] + CC(=O)O[C@@]12CO[C@@H]1C[C@H](O)[C@@]1(C)C(=O)[C@H](O)C3=C(C)[C@@H](OC(=O)[C@H](O)[C@@H](NC(=O)OC(C)(C)C)c4ccccc4)C[C@@](O)([C@@H](OC(=O)c4ccccc4)[C@H]21)C3(C)C [Docetaxel] (first compound 2 µM, partner dose 0.0001 µM)
cleaved PARP positive nuclei fraction (501Mel): 408% | cleaved PARP positive nuclei fraction (A101D): 122% | cleaved PARP positive nuclei fraction (A2058): 743% | cleaved PARP positive nuclei fraction (A375): 1060% | cleaved PARP positive nuclei fraction (C32): 86.4% | cleaved PARP positive nuclei fraction (CBRC008): 168% | cleaved PARP positive nuclei fraction (CBRC014): 116% | cleaved PARP positive nuclei fraction (CBRC016): 235% | cleaved PARP positive nuclei fraction (CBRC017): 175%

CS(=O)(=O)c1ccc(C(=O)Nc2ccc(Cl)c(-c3ccccn3)c2)c(Cl)c1 [vismodegib] + CCN(CC)CCNC(=O)c1c(C)[nH]c(/C=C2\C(=O)Nc3ccc(F)cc32)c1C [sunitinib] (first compound 1 µM, partner dose 0.4 µM)
cleaved PARP positive nuclei fraction (501Mel): 70.4% | cleaved PARP positive nuclei fraction (A101D): 56.4% | cleaved PARP positive nuclei fraction (A2058): 83.5% | cleaved PARP positive nuclei fraction (A375): 147% | cleaved PARP positive nuclei fraction (C32): 90.5% | cleaved PARP positive nuclei fraction (CBRC008): 74.6% | cleaved PARP positive nuclei fraction (CBRC014): 117% | cleaved PARP positive nuclei fraction (CBRC017): 200%

CCN(CC)CCNC(=O)c1c(C)[nH]c(/C=C2\C(=O)Nc3ccc(F)cc32)c1C [sunitinib] + C[C@]1(c2nc3c(C(N)=O)cccc3[nH]2)CCCN1 [Veliparib] (first compound 0.4 µM, partner dose 1.4 µM)
cleaved PARP positive nuclei fraction (501Mel): 185% | cleaved PARP positive nuclei fraction (A101D): 55.2% | cleaved PARP positive nuclei fraction (A2058): 33.1% | cleaved PARP positive nuclei fraction (A375): 332% | cleaved PARP positive nuclei fraction (C32): 156% | cleaved PARP positive nuclei fraction (CBRC008): 32.9% | cleaved PARP positive nuclei fraction (CBRC014): 106% | cleaved PARP positive nuclei fraction (CBRC016): 73.2% | cleaved PARP positive nuclei fraction (CBRC017): 106%

C[C@]1(O)C[C@@H](c2nc(-c3ccc4ccc(-c5ccccc5)nc4c3)c3c(N)nccn32)C1 + NC1(c2ccc(-c3nc4ccn5c(=O)[nH]nc5c4cc3-c3ccccc3)cc2)CCC1 [MK2206] (first compound 0.4 µM, partner dose 0.4 µM)
cleaved PARP positive nuclei fraction (501Mel): 95.4% | cleaved PARP positive nuclei fraction (A101D): 190% | cleaved PARP positive nuclei fraction (A2058): 68% | cleaved PARP positive nuclei fraction (A375): 106% | cleaved PARP positive nuclei fraction (C32): 78.6% | cleaved PARP positive nuclei fraction (CBRC008): 130% | cleaved PARP positive nuclei fraction (CBRC014): 93% | cleaved PARP positive nuclei fraction (CBRC016): 96.6% | cleaved PARP positive nuclei fraction (CBRC017): 126%

COc1ccc(C2=N[C@@H](c3ccc(Cl)cc3)[C@@H](c3ccc(Cl)cc3)N2C(=O)N2CCNC(=O)C2)c(OC(C)C)c1 [Nutlin-3] + O=c1cc(-c2cccc3c2Sc2ccccc2S3)oc(N2CCOCC2)c1 [KU55933] (first compound 0.1 µM, partner dose 1 µM)
cleaved PARP positive nuclei fraction (501Mel): 68.8% | cleaved PARP positive nuclei fraction (A101D): 47.4% | cleaved PARP positive nuclei fraction (A2058): 67.9% | cleaved PARP positive nuclei fraction (C32): 86.6% | cleaved PARP positive nuclei fraction (CBRC008): 61.6% | cleaved PARP positive nuclei fraction (CBRC014): 125% | cleaved PARP positive nuclei fraction (CBRC016): 101% | cleaved PARP positive nuclei fraction (CBRC017): 125%

From the supplement of paper PMC4604168 (melanoma cell lines)
